Reference: publication PMC6796902
No constants are given. Whether binding was seen depends on the method and setting. Binding seen in cells or lysates may run through a third protein. Some entries that bind do so weakly or less than the wild type.

Amino acid sequences for entries named in this document (tags omitted).
UniProt Q03164: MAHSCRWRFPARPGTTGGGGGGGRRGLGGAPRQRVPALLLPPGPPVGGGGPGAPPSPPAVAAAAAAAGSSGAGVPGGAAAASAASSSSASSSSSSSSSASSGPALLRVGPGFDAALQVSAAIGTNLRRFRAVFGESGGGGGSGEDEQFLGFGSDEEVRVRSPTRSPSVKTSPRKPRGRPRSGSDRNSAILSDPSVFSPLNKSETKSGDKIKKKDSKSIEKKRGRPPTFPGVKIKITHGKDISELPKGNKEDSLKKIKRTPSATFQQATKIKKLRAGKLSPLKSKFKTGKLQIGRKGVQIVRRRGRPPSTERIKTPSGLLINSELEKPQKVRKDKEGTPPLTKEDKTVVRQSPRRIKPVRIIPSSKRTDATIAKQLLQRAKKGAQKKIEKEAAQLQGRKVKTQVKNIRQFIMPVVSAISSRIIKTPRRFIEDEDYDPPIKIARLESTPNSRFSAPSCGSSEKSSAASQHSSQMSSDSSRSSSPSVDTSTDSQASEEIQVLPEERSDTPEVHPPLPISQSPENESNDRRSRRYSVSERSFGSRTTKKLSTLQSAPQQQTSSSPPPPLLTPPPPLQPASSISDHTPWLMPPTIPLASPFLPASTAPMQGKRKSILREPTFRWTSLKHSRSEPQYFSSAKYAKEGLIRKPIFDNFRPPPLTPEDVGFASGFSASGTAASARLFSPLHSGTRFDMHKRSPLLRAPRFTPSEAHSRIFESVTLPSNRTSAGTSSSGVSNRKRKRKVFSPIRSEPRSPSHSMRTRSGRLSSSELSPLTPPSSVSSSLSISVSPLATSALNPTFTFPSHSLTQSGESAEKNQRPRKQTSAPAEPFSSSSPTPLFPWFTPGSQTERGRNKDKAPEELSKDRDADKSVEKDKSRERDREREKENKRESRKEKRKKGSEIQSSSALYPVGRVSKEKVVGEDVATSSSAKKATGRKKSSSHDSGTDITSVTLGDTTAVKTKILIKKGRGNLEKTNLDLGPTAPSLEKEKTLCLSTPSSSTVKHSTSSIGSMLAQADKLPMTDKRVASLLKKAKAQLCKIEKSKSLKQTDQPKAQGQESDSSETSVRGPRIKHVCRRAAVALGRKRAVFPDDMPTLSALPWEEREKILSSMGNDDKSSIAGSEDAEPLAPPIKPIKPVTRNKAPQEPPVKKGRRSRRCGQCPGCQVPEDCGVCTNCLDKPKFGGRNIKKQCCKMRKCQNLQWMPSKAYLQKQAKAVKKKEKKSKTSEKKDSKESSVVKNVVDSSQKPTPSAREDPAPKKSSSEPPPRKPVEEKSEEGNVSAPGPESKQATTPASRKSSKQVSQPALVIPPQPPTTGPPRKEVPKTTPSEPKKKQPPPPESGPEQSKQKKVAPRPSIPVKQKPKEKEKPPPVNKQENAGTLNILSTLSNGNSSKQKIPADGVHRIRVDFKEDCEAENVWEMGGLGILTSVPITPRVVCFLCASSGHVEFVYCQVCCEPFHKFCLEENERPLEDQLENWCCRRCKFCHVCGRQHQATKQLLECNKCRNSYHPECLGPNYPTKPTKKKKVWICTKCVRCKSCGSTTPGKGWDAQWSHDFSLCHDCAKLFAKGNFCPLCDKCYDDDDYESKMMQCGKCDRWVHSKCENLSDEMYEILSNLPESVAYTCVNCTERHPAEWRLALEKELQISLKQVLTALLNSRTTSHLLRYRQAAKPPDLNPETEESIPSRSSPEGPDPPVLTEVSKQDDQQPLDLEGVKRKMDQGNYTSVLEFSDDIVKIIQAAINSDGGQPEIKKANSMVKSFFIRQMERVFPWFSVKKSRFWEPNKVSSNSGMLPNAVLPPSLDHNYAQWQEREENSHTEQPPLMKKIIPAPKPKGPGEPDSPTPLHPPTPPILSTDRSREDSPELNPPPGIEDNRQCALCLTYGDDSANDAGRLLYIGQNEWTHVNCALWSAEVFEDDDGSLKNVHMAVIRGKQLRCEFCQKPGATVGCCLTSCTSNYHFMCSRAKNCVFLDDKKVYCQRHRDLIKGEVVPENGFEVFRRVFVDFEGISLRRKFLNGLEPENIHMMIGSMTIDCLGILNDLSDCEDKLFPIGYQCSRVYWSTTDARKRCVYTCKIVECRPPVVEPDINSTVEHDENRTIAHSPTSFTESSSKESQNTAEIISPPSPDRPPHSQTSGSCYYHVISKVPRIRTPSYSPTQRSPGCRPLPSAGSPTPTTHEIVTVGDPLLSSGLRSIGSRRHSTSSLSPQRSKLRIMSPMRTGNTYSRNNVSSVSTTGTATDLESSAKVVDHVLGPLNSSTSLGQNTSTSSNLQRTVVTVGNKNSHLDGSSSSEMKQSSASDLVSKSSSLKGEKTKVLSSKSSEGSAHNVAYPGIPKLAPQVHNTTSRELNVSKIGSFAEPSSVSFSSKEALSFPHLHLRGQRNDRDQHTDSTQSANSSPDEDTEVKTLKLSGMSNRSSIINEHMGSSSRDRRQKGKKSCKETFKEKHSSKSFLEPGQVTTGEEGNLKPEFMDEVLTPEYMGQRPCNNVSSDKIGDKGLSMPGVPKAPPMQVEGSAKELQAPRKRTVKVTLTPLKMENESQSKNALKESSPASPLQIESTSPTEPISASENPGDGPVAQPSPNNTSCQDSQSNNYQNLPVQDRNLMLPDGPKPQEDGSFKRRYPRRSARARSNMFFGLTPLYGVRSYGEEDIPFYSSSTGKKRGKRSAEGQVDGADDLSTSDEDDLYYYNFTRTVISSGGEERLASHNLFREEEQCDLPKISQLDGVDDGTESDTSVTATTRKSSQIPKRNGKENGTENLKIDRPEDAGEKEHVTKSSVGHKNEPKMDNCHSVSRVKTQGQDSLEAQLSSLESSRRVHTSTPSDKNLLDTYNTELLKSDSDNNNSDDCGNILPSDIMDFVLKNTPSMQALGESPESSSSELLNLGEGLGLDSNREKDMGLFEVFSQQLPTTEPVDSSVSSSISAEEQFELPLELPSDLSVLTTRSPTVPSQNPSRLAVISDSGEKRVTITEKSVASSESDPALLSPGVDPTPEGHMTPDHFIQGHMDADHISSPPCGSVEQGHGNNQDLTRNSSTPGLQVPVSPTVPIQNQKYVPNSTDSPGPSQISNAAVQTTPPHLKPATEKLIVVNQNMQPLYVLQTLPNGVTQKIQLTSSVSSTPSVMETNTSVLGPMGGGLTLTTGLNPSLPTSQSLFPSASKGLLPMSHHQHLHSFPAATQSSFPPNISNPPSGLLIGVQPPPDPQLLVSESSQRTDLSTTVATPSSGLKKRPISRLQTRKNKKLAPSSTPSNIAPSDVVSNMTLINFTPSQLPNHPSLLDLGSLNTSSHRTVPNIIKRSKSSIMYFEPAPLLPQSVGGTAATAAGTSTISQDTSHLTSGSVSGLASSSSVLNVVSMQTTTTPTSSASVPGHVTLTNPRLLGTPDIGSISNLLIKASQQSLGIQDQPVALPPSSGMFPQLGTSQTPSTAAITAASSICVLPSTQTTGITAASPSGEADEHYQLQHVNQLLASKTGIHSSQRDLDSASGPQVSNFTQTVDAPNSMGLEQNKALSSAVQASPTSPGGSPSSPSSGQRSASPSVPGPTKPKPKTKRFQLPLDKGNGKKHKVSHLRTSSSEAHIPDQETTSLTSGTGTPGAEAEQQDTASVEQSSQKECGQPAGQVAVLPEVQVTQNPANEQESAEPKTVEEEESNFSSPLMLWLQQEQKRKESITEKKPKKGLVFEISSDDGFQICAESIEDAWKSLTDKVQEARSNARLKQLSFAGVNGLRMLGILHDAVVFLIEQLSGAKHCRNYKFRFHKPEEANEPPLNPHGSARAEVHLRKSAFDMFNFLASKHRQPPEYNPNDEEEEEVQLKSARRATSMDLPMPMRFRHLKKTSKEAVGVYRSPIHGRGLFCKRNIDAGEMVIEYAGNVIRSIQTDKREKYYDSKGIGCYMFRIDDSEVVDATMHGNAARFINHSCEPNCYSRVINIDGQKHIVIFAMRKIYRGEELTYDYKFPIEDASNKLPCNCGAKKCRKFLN
UniProt P67809: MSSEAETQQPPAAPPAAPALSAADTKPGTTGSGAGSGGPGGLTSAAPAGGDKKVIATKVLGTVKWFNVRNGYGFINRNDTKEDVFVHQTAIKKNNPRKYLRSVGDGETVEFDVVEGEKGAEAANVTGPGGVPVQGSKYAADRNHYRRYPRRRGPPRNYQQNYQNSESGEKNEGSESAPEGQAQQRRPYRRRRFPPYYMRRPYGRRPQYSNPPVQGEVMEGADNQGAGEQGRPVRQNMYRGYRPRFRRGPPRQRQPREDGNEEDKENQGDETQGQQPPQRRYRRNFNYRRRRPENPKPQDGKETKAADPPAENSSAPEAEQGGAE

Key:
[1] = target: mixed-lineage leukemia (MLL) protein (human (endogenous in 293T)) (UniProt Q03164); assay: co-IP; total lysates of 293T cells, immunoprecipitation with anti-MLL antibodies, immunoblots of copurified endogenous proteins
[2] = target: Mll (mouse mixed-lineage leukemia protein), endogenous in MEF cells (mouse (endogenous in MEF)) (UniProt P55200); assay: co-IP; total lysate of MEF cells, anti-Mll antibody with Dynabeads protein G at 4 °C overnight, 4 washes in lysis buffer, immunoblot; IgG as control (Supplementary Fig. S1a; untreated lanes of Fig. S2f; Dcp1a and Edc3 also after RNase A)
[3] = target: MLL (human mixed-lineage leukemia protein), endogenous in the cytosolic fraction of 293T cells (human (endogenous in 293T)) (UniProt Q03164); assay: co-IP; cytosolic fraction of 293T cells (NE-PER kit), anti-MLL antibody with Dynabeads protein G, immunoblot (Supplementary Fig. S1b)
[4] = target: mixed-lineage leukemia (MLL) protein (human (endogenous in 293T)) (UniProt Q03164); assay: co-IP; 293T cell lysates treated with RNase A, then anti-MLL immunoprecipitation and western blots
[5] = target: mixed-lineage leukemia (MLL) protein (human (endogenous in 293T)) (UniProt Q03164); assay: co-IP; cytoplasm (Supplementary Fig. S1b; details not shown)
[6] = target: mixed-lineage leukemia (MLL) protein (human (endogenous in 293T)) (UniProt Q03164); assay: co-IP; total lysates of 293T cells, immunoprecipitation with anti-MLL antibodies, immunoblots of copurified endogenous proteins; remark: listed apart in the source

For YB-1 (from UniProt P67809 1-324), the binding [1] was “binds”.

B1: Dcp1a (mouse), endogenous in MEF cells (protein, UniProt Q91YD3 1-602)
chain: MALSCSTVRPRRRGSALRSKMELLSRAEQEMSLAALKQHDPYITSIADLTGQVALYTFCPKANQWEKTDIEGTLFVYRRSASPYHGFTIVNRLNMHNLVEPVNKDLEFQLHEPFLLYRNASLSIYSIWFYDKNDCHRIAKLMADVVEEETRRSQQAARDKQSPSQANGCSDQRPIDILEMLSRAKDEYERNQMGGSNISSPGLQPSTQLSNLGSTETLEETPSGSQDKSAPSGHKHLTVEELFGTSLPKEQPTAMGLESEDTDKLLGDASQKEPSSFLPFPFEQSGGAPQSENLGIHSAAHHTVQPEVSTPVLITPASIAQSGDKHPPSYTLPLSPVLSPTLPAEAPTTQVPHLPRNSTMIQAVKTTPRQKSPLLNQPVPELSHSSLVASQSPFRAPVSLANPAGTALPSVDLLQKLRLTPQHDQIQAQPLGKGTMAPSFSSAAGQLATPESFIEPSSKTAAARAAVSASLSNMVLAPTLQSMQQNQDPEVFSQPKVLPSAIPIAGSPLVPATTTAVSSVLLSPSVFQQTVPRAADLERKASSPSPLTVGTAESQRKPSIILSKSQLQDTLIHLIKNDSSFLSTLHAVYLQVLTKNKDNHNL
B1 was tested, and the binding [2] was “binds”.

B2: Edc3 (mouse), endogenous in MEF cells (protein, UniProt Q8K2D3 1-508)
chain: MAMDWLGSIVSINCGDSLGVYQGRVSAVDQVSQTISLTRPFHNGVKCLVPEVTFRAGDITELKILEIPGPGDNQQVGDLHQTELGPSGVGYQMSISQNGTGKVVKKPASSSSAPQSIPKRTDVKSQDVAISPQQQQCSKSYVDRHMESLSQSKSFRRRHNSWSSSSRHPNQATPKKSGLKNGQMKNKDDECFGDDIEELPDTDFDFEGNLALFDKAAVFEEIDTYERRSGSRSRGVPNERPARYRHDENILESEPIVYRRITVPHSVSKEFCTDSGLVVPSVSYELHKKLLSVAEKHGLTLERRLEMTGVCASQMALTLLGGPNRLNPKNVHQRPTVALLCGPHVKGAQGISCGRHLANHDVQVILFLPNFVKMLESITNELSLFSKTQGQQVSSLRDLPASPVDLVINCLDCPENAFLRDQPWYKAAVAWANQNRAPVLSIDPPVHEVEQGIDAKWSLALGLPLPLGEHAGRVYLCDIGIPQQVFQEVGINYHSPFGCKFVIPLHSA
For B2, the binding [2] was “binds”.

B3: EDC3 (human), endogenous in 293T cells (protein, UniProt Q96F86 1-508)
chain: MATDWLGSIVSINCGDSLGVYQGRVSAVDQVSQTISLTRPFHNGVKCLVPEVTFRAGDITELKILEIPGPGDNQHFGDLHQTELGPSGAGCQVGINQNGTGKFVKKPASSSSAPQNIPKRTDVKSQDVAVSPQQQQCSKSYVDRHMESLSQSKSFRRRHNSWSSSSRHPNQATPKKSGLKNGQMKNKDDECFGDDIEEIPDTDFDFEGNLALFDKAAVFEEIDTYERRSGTRSRGIPNERPTRYRHDENILESEPIVYRRIIVPHNVSKEFCTDSGLVVPSISYELHKKLLSVAEKHGLTLERRLEMTGVCASQMALTLLGGPNRLNPKNVHQRPTVALLCGPHVKGAQGISCGRHLANHDVQVILFLPNFVKMLESITNELSLFSKTQGQQVSSLKDLPTSPVDLVINCLDCPENVFLRDQPWYKAAVAWANQNRAPVLSIDPPVHEVEQGIDAKWSLALGLPLPLGEHAGRIYLCDIGIPQQVFQEVGINYHSPFGCKFVIPLHSA
In the case of B3, the binding [3] is reported as “binds”.

B4: EDC4 (human), endogenous in 293T cells (protein, UniProt Q6P2E9 1-1401)
chain: MASCASIDIEDATQHLRDILKLDRPAGGPSAESPRPSSAYNGDLNGLLVPDPLCSGDSTSANKTGLRTMPPINLQEKQVICLSGDDSSTCIGILAKEVEIVASSDSSISSKARGSNKVKIQPVAKYDWEQKYYYGNLIAVSNSFLAYAIRAANNGSAMVRVISVSTSERTLLKGFTGSVADLAFAHLNSPQLACLDEAGNLFVWRLALVNGKIQEEILVHIRQPEGTPLNHFRRIIWCPFIPEESEDCCEESSPTVALLHEDRAEVWDLDMLRSSHSTWPVDVSQIKQGFIVVKGHSTCLSEGALSPDGTVLATASHDGYVKFWQIYIEGQDEPRCLHEWKPHDGRPLSCLLFCDNHKKQDPDVPFWRFLITGADQNRELKMWCTVSWTCLQTIRFSPDIFSSVSVPPSLKVCLDLSAEYLILSDVQRKVLYVMELLQNQEEGHACFSSISEFLLTHPVLSFGIQVVSRCRLRHTEVLPAEEENDSLGADGTHGAGAMESAAGVLIKLFCVHTKALQDVQIRFQPQLNPDVVAPLPTHTAHEDFTFGESRPELGSEGLGSAAHGSQPDLRRIVELPAPADFLSLSSETKPKLMTPDAFMTPSASLQQITASPSSSSSGSSSSSSSSSSSLTAVSAMSSTSAVDPSLTRPPEELTLSPKLQLDGSLTMSSSGSLQASPRGLLPGLLPAPADKLTPKGPGQVPTATSALSLELQEVEPLGLPQASPSRTRSPDVISSASTALSQDIPEIASEALSRGFGSSAPEGLEPDSMASAASALHLLSPRPRPGPELGPQLGLDGGPGDGDRHNTPSLLEAALTQEASTPDSQVWPTAPDITRETCSTLAESPRNGLQEKHKSLAFHRPPYHLLQQRDSQDASAEQSDHDDEVASLASASGGFGTKVPAPRLPAKDWKTKGSPRTSPKLKRKSKKDDGDAAMGSRLTEHQVAEPPEDWPALIWQQQRELAELRHSQEELLQRLCTQLEGLQSTVTGHVERALETRHEQEQRRLERALAEGQQRGGQLQEQLTQQLSQALSSAVAGRLERSIRDEIKKTVPPCVSRSLEPMAGQLSNSVATKLTAVEGSMKENISKLLKSKNLTDAIARAAADTLQGPMQAAYREAFQSVVLPAFEKSCQAMFQQINDSFRLGTQEYLQQLESHMKSRKAREQEAREPVLAQLRGLVSTLQSATEQMAATVAGSVRAEVQHQLHVAVGSLQESILAQVQRIVKGEVSVALKEQQAAVTSSIMQAMRSAAGTPVPSAHLDCQAQQAHILQLLQQGHLNQAFQQALTAADLNLVLYVCETVDPAQVFGQPPCPLSQPVLLSLIQQLASDLGTRTDLKLSYLEEAVMHLDHSDPITRDHMGSVMAQVRQKLFQFLQAEPHNSLGKAARRLSLMLHGLVTPSLP
For B4, the binding [3] was “binds”.

B5: EDC3 (protein, UniProt Q96F86 1-508)
chain: MATDWLGSIVSINCGDSLGVYQGRVSAVDQVSQTISLTRPFHNGVKCLVPEVTFRAGDITELKILEIPGPGDNQHFGDLHQTELGPSGAGCQVGINQNGTGKFVKKPASSSSAPQNIPKRTDVKSQDVAVSPQQQQCSKSYVDRHMESLSQSKSFRRRHNSWSSSSRHPNQATPKKSGLKNGQMKNKDDECFGDDIEEIPDTDFDFEGNLALFDKAAVFEEIDTYERRSGTRSRGIPNERPTRYRHDENILESEPIVYRRIIVPHNVSKEFCTDSGLVVPSISYELHKKLLSVAEKHGLTLERRLEMTGVCASQMALTLLGGPNRLNPKNVHQRPTVALLCGPHVKGAQGISCGRHLANHDVQVILFLPNFVKMLESITNELSLFSKTQGQQVSSLKDLPTSPVDLVINCLDCPENVFLRDQPWYKAAVAWANQNRAPVLSIDPPVHEVEQGIDAKWSLALGLPLPLGEHAGRIYLCDIGIPQQVFQEVGINYHSPFGCKFVIPLHSA
With B5 the binding [4] was “binds”, the binding [5] was “binds” and the binding [6] was “binds”.

B6: EDC4 (protein, UniProt Q6P2E9 1-1401)
chain: MASCASIDIEDATQHLRDILKLDRPAGGPSAESPRPSSAYNGDLNGLLVPDPLCSGDSTSANKTGLRTMPPINLQEKQVICLSGDDSSTCIGILAKEVEIVASSDSSISSKARGSNKVKIQPVAKYDWEQKYYYGNLIAVSNSFLAYAIRAANNGSAMVRVISVSTSERTLLKGFTGSVADLAFAHLNSPQLACLDEAGNLFVWRLALVNGKIQEEILVHIRQPEGTPLNHFRRIIWCPFIPEESEDCCEESSPTVALLHEDRAEVWDLDMLRSSHSTWPVDVSQIKQGFIVVKGHSTCLSEGALSPDGTVLATASHDGYVKFWQIYIEGQDEPRCLHEWKPHDGRPLSCLLFCDNHKKQDPDVPFWRFLITGADQNRELKMWCTVSWTCLQTIRFSPDIFSSVSVPPSLKVCLDLSAEYLILSDVQRKVLYVMELLQNQEEGHACFSSISEFLLTHPVLSFGIQVVSRCRLRHTEVLPAEEENDSLGADGTHGAGAMESAAGVLIKLFCVHTKALQDVQIRFQPQLNPDVVAPLPTHTAHEDFTFGESRPELGSEGLGSAAHGSQPDLRRIVELPAPADFLSLSSETKPKLMTPDAFMTPSASLQQITASPSSSSSGSSSSSSSSSSSLTAVSAMSSTSAVDPSLTRPPEELTLSPKLQLDGSLTMSSSGSLQASPRGLLPGLLPAPADKLTPKGPGQVPTATSALSLELQEVEPLGLPQASPSRTRSPDVISSASTALSQDIPEIASEALSRGFGSSAPEGLEPDSMASAASALHLLSPRPRPGPELGPQLGLDGGPGDGDRHNTPSLLEAALTQEASTPDSQVWPTAPDITRETCSTLAESPRNGLQEKHKSLAFHRPPYHLLQQRDSQDASAEQSDHDDEVASLASASGGFGTKVPAPRLPAKDWKTKGSPRTSPKLKRKSKKDDGDAAMGSRLTEHQVAEPPEDWPALIWQQQRELAELRHSQEELLQRLCTQLEGLQSTVTGHVERALETRHEQEQRRLERALAEGQQRGGQLQEQLTQQLSQALSSAVAGRLERSIRDEIKKTVPPCVSRSLEPMAGQLSNSVATKLTAVEGSMKENISKLLKSKNLTDAIARAAADTLQGPMQAAYREAFQSVVLPAFEKSCQAMFQQINDSFRLGTQEYLQQLESHMKSRKAREQEAREPVLAQLRGLVSTLQSATEQMAATVAGSVRAEVQHQLHVAVGSLQESILAQVQRIVKGEVSVALKEQQAAVTSSIMQAMRSAAGTPVPSAHLDCQAQQAHILQLLQQGHLNQAFQQALTAADLNLVLYVCETVDPAQVFGQPPCPLSQPVLLSLIQQLASDLGTRTDLKLSYLEEAVMHLDHSDPITRDHMGSVMAQVRQKLFQFLQAEPHNSLGKAARRLSLMLHGLVTPSLP
With B6 the binding [5] was “binds” and the binding [6] was “binds”.
